Measurements published in US20250090557A1 (priority 2020, published 2025).
Some of these results come from one statement about several compounds together.

How the values were obtained:
[1] = system: icSARS-CoV-2-mNG; format: cell-based, SARS-CoV-2
[2] = system: icSARS-CoV-2-mNG; format: cell-based, SARS-CoV-2; remark: listed apart in the source

For `COC1=C(OC)C(=O)C(CCCCCCCCCC[P+](c2ccccc2)(c2ccccc2)c2ccccc2)=C(C)C1=O.CS(=O)(=O)[O-]` [Mito-MES, 10-(4,5-dimethoxy-2-methyl-3,6-dioxo-1,4-cyclohexadienyl) decyl triphenylphosphonium methanesulfonate], the “concentration at which potent antiviral activity is exhibited” value [1] was at most 25 nM and the “concentration at which antiviral activity is exhibited” value [2] was at most 25 nM.
